Test results as given in publication PMC3765993, “The duration of sleep promoting efficacy by dual orexin receptor antagonists is dependent upon receptor occupancy threshold” (BMC Neuroscience, 2013).
“Also recorded” adds a separate entry of the source.

Test system: rhesus monkeys
Experiment: Rhesus monkey quantitative EEG spectral power
Format: in vivo
Conditions: 10 mg/kg p.o. 2 h before lights out, versus vehicle; for qEEG theta power during the inactive period: 10 mg/kg

**Q.** Which “qEEG gamma power (35–100 Hz) during the inactive period” value does the source give for CN1C(=O)CN=C(c2ccccc2)c2cc(Cl)ccc21 [Diazepam] here?
**A.** increased

**Q.** And the “qEEG theta power during the inactive period” value?
**A.** substantially decreased; also recorded: suppressed

**Q.** For CN1CCN(C(=O)O[C@H]2c3nccnc3C(=O)N2c2ccc(Cl)cn2)CC1 [Eszopiclone], which “qEEG gamma power (35–100 Hz) during the inactive period” value is on record?
**A.** increased

**Q.** And the “qEEG theta power during the inactive period” value?
**A.** substantially decreased; also recorded: suppressed
